These results are taken from US20250357519A1, “APPLICATIONS OF O2-INSENSITIVE FORMATE DEHYDROGENASE” (UNIVERSITY OF MARYLAND, BALTIMORE, priority 2022, published 2025).

Series [1] can be described thus: Phenazine ethosulfate (PES)/dichlorophenolindophenol (DCPIP) assay of formate oxidation by DvH-FDH2. Format: biochemical, Desulfovibrio vulgaris Hildenborough. The conditions noted are these: full progress curve; for Product stoichiometry: F, formate. An excerpt:
FIG. 38. Experimental workflow for aerobic PES/DCPIP assay. Prepare cuvette (1), fill with reaction mix (2), add stirrer (3), initiate kinetics by the addition of DvH-FDH2 while the contents of the cuvette are being mixed (4), and continue data collection until completion (5). Blue arrows shown at the bottom in steps 4 and 5 denote stirring.
FIG. 39. Experimental workflow for anaerobic PES/DCPIP assay. Setup cuvette (1,2), add reaction mix (3), gas with argon (4), start the reaction by injecting DvH-FDH2 (5), and collect data until the reaction goes to completion (6). Blue arrows shown at the bottom in steps 4-6 represent stirring.
In this dye-linked assay, PES (Em,7=+65 mV) serves as the primary electron acceptor. Following its reduction by FDH2, PES nonenzymatically transfers electrons to a second dye, DCPIP, facilitating spectrophotometric detection.^91 Workflows are described in FIGS. 38 and 39. PES was chosen over PMS because of its long-term stability.^120 Furthermore, necessary precautions were taken in handling and preparing the reagents, including protecting the reagents from light.^187 DvH-FDH2 was assayed in 1 mM PES (Sigma-Aldrich P4544-1G)/93 μM DCPIP (98% pure; Acros 152870100) in 50 mM Tris pH 8.0. Reactions, 2.5 mL volume, were set up to the desired formate concentration and then started by addition of 10 μL of 400 nM FDH2 (1.6 nM final). Precipitation of reduced PES precluded used of higher concentrations of the electron acceptor. Therefore, 1 mM PES was used. Assays were performed using a UV-2600i spectrophotometer (Shimadzu Life Sciences) equipped with T2 Peltier/stirrer accessory (Quantum) and monitored at 600 nm. For aerobic measurements (FIG. 38), reactions were performed in open top styrene disposable cuvettes (Brand 75907D) with 6 mm×9 mm cuvette stirrer (Cowie 001.1609) spun at 400 rpm, and reactions started by addition of 10 μL of 400 nM FDH2 via micropipette. Some aerobic experiments were conducted using a Cary 300 UV-Vis spectrophotometer (Agilent) at a volume of 3.0 mL with api 9 mm×8 mm spin bar (Sigma Z363545) cuvette stirrer. For the anaerobic conditions (FIG. 39), reactions were set up under argon in screw cap quartz cuvettes (Starna 1-SOG-10_GL14-S) sealed with Suba-Seal 13 white rubber septa (Sigma Z167258). The stirrer was an 8 mm×3 mm pivot bar (VWR 37119-6183), stirring at 650 rpm. Reactions were started by addition of FDH2 via 10 μL Hamilton syringe (701N 80300) under an argon atmosphere.
For classical steady-state kinetics, initial velocities (guided by residual plots) were obtained using ICEKAT.^188 KinTek Explorer^84,89 (version 10.1.6, KinTek Corporation) was used to perform global fitting of enzyme kinetics data to Schemes 1 and S1. This is based on numerical integration of rate equations. Confidence contour analysis was carried out to assess whether the parameters were properly constrained by the data.

Series [2] is described as follows: Benzyl viologen (BV) assay of formate oxidation by DvH-FDH2. The conditions noted are these: full progress curve, 2 mM BV (anaerobic). Format: biochemical, Desulfovibrio vulgaris Hildenborough.

B1: DvH-FDH2 (protein)
chain 1: MRMPRRTFIKLASASAGALAFAGLGQSLAPTVARAAELKIAKAKVTPSVCCFCAVGCGLLVYTDTQTGRSINIEGDPDHPTNEGTLCPKGASIWQTTERSKRVTKVLYRAPGAAAWEEKSWDWALPRIARKIKETRDATFELTNDKGQTVNRTRGIASVGSAAVDNEEGWLMQAMMRALGLVYIESHARIUHSSTVGALAESYGRGAMTNHWIDLKNSDVILIMGSNAAENHPISFKWVTRAQERGATLIHVDPRFTRTSAKADIHAHIRSGTDIAFFGGLIRYIMENDLFFRQYVVDYTNASYIVGADYGFADGLFTGFDAEKGTYNTKKWAFAADENGMTLKDPTLNDPRCVFQLMKAHYARYDRKTVSDVTGISEEQLATLWSTFASTGKPDRAGTILYAMGQCQHTVGVQNIRALSMIQLLLGNIGIAGGGVNALRGESNVQGTTDISLLCDNLSGYLPTPKASWATFDDYVKGTTPVDKDPKSANWWSNRGKYLASYMKSVYPTASHQDGYLWHPKVDDGKITDYSWLQIFERMSKGGFKGAFVWGQNPCAGGANAGKNRKAMETLDWMVVVNLFENESSLFWKGPGVDPAKVKTEVFFLPACMSVEKGGSIANSGRWLQWREPGPKPMGDSRSDGDIVLDLYDEIRKLYREEKGAFPEPVLALDTDYRTDGKYDHHKVAKTLNGKFLTDVTIGDKTYKAGQQVPGFAMLQADGSTTSGCWIFTGCYTDAGNMMARRDRTQTPEQAAIGLFPNWSYAWPANRRILYNRAAVDMTGKPFDPKRAVIAWNGEKWVGDVPDGGWKPGEKLPFIMIREGRGQLFGPGRVDGPFPEHYEPFESPLESHPFSKQRVNPTALAFSHEPKAVRDKRYPFICTTYRVTEQWQSGTMTRNTGWLKEMQPEGFCEISRELAKELGIANGDAVVLESLRGKVQVVAIVTPRLKPFKVMGEVMHEVGIPWQFGWGQHVGKGDSANLLSPSVGDPNTGIPETKVFMVNLRKA
chain 2: MRPLGSLPQGMRRVSRRHIREAYMNGKTFFIDQTRCTACRGCQAACKQWKKFGSIETRNTGSYQNPPDLGPSTFKLVRFNEVEVDGKLKWLFFPEQCRHCLEPPCKMVADALIPGAIVQDAETGAVLYTEKTKGLDYMEVRSACPYDIPRQDPATGLLTKCNMCIDRVQNGMLPACVKTCPTGTMHFGDRADMLELAQKRLGEVKKRSPAALLADSDLVRVLYLCELAPANYHSHMVAEADTSRIGPFSRRALLRLRPFA
modifications: non-natural residues; left off: small tags and cut ends
B1: the Enzyme inactivation entry in series [1] (DCPIP (air)), in series [1] (DCPIP (anaerobic)) and in series [2] was “No” in each case. The Product inhibition result in series [1] (DCPIP (air)), in series [1] (DCPIP (anaerobic)) and in series [2] was “No” throughout. For the same molecule, the Product stoichiometry is 1DCPIP:1F in series [1] (DCPIP (air)); 1DCPIP:1F in series [1] (DCPIP (anaerobic)); 2BV^+: 1F in series [2] (F, formate).
